Measurements reported in PubChem BioAssay AID1259425 (University of Nebraska Medical Center, 2018).
Aim: 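Seek colon cancer weak points whose silencing resembles KSR1 loss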 (primary screen). Cells: HCT116 human colon cancer cells. Reagent: siRNA pool against human genes, 50 nM siRNA. Measurement: 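mRNA of six signature genes measured together by branched-DNA assay after 50 nM siRNA pool, blank removed, divided by geometric mean of two housekeeping genes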. Direction: BNIP3L mRNA: higher = more BNIP3L transcript after knockdown; NDRG1 mRNA: higher = more NDRG1 transcript after knockdown; BNIP3 mRNA: higher = more BNIP3 transcript after knockdown.
The deposit covers about 14,000 reagents; this is a random part of them. Some reagents were tested in more than one well and are listed for each. Not all columns of the deposit are shown. Reagent sequences are not shown. Not given: the time to read-out.

Gene	BNIP3L mRNA, set 1	NDRG1 mRNA, set 1	BNIP3 mRNA, set 1
RAD51AP1	0.0509	0.345	0.234
CD99L2	0.115	0.202	0.395
TRHDE	0.45	2.06	0.753
ZNF286A	0.0829	0.166	0.352
PCYT1B	0.138	0.248	0.265
CREBZF	0.802	0.158	1.61
ADGRB3	0.0736	0.205	0.287
FDXR	0.0474	0.151	0.216
SEC22C	0.159	0.169	0.319
EIF4EBP3	0.155	0.2	0.18
PCBP1	0.137	0.335	0.324
OTUD7B	0.148	0.284	0.313
ISCA1	0.109	0.378	0.441
SYN2	0.0653	0.12	0.313
DLD	0.0748	0.107	0.331
PTPN9	0.0535	0.103	0.298
CRNKL1	0.0752	0.0809	0.212
GPX7	0.331	0.557	0.507
TSPYL1	0.263	0.547	0.276
NDUFB5	0.159	0.308	0.28
SLX4	0.0706	0.863	0.181
THUMPD2	0.0818	0.156	0.34
SERHL2	0.0607	0.135	0.317
AIRIM	0.105	0.19	0.273
GALE	0.251	0.0523	0.263
PCOLCE	0.0985	0.136	0.373
SNX15	0.115	0.132	0.305
GPR39	0.0898	0.142	0.368
WEE1	0.0796	0.295	0.381
AGTR2	0.0884	0.0593	0.56
AGTR2	0.081	0.0801	0.334
SGPL1	0.275	0.106	0.58
CD2BP2	0.183	0.211	0.379
TBC1D2B	0.0745	0.0995	0.265
GMFG	0.0501	0.0671	0.224
OVGP1	0.0823	0.228	0.23
PHLDA1	0.0926	0.323	0.235
JAM2	0.115	0.143	0.253
ATXN2	0.102	0.276	0.207
RPL23AP32	0.495	0.388	0.608
CSNK1G3	0.0628	0.0413	0.203
TWIST1	0.0945	0.284	0.319
SPRR3	0.138	0.853	0.404
STK24	0.162	0.18	0.315
ILF2	0.0864	0.12	0.188
REXO5	0.133	0.255	0.379
CYP2F1	0.137	0.101	0.335
PHC3	0.212	0.431	0.603
ANK2	0.0436	0.207	0.265
TAC3	0.0975	0.0702	0.212

Records above whose gene name begins with I or i:
Gene	BNIP3L mRNA, set 1	NDRG1 mRNA, set 1	BNIP3 mRNA, set 1
ISCA1	0.109	0.378	0.441
ILF2	0.0864	0.12	0.188
